Measurements published in PubChem BioAssay AID1487 (National Center for Advancing Translational Sciences (NCATS), 2009).
Where “and” joins values, the source holds several entries; their conditions need not be identical. Identical values can stand only once. Some of the results follow. These are further read-outs of the screen, such as a control signal, another cell line or another target. No call is given for them. Compounds called inactive in the main read-out are mostly missing here. Words in brackets tell the shape of the fitted curve; partial curves, single points and poor fits give uncertain potencies.

Test: qHTS Assay for Modulators of Lamin A Splicing
Details: HeLa LMNA splicing GFP/RFP minigene ratio, 48 h
Summary of the method: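 Read-out is the ratio of GFP to DsRed2 object intensity, acquired by 488 nm laser-scanning cytometry on HeLa lamin A-EGFP minigene reporter cells. Compound incubation 48 hrs at 37 °C in Opti-MEM with 2% FBS; DMSO 0.5% final.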

[1] = measured here: RFP viability control channel
[2] = measured here: GFP splicing reporter channel

**Q.** With `O=C(NCCc1csc(-c2ccccc2)n1)c1ccc(Br)o1` as the compound, how does the AC50 [1] read?
**A.** Its AC50 is 11.2 µM [rising, partial curve].

**Q.** With `O=C(NC1CCCCC1)c1cc(Nc2cccc(C(F)(F)F)c2)nc2ccccc12` as the compound, how does the AC50 [1] read?
**A.** Its AC50 is 4.47 µM [falling, partial curve, poor fit].

**Q.** Which AC50 [2] does the source give for `CN(c1ccccc1)c1nc(N2CCCC2)nc(-n2ccnc2)n1` here?
**A.** Its AC50 is 25.1 µM [rising, single point].

**Q.** What about the AC50 [1] of the same compound?
**A.** The AC50 was 22.4 µM [rising, single point].

**Q.** With `Cc1ccc(C(=O)N(C)c2nnc(-c3ccncc3)s2)cc1` as the compound, how does the AC50 [2] read?
**A.** Its AC50 is 12.6 µM [falling, single point].

**Q.** And the AC50 [1]?
**A.** The AC50 was 15.8 µM [falling, partial curve, poor fit].

**Q.** With `CC(C)Oc1ccc(C2CC(=O)N(c3ccc(C(=O)O)cc3)C2=O)cc1` (centres undefined) as the compound, how does the AC50 [2] read?
**A.** The AC50 was 0.0355 µM [rising, full curve, poor fit].

**Q.** With `COc1ccc(NC(=S)NN(C)C(=S)Nc2ccc(OC)cc2)cc1` as the compound, how does the AC50 [2] read?
**A.** Its AC50 is 12.6 µM [rising, partial curve].

**Q.** What about the AC50 [1] of the same compound?
**A.** Its AC50 is 12.6 µM [rising, partial curve].

**Q.** For `C/C(=N\Nc1ccccc1Cl)c1ccc(-n2ccnc2)cc1`, which AC50 [2] is on record?
**A.** Its AC50 is 0.0891 µM [rising, full curve, poor fit].

**Q.** Which AC50 [2] does the source give for `Cc1ccc2nc(/C(C#N)=C\c3ccc(Oc4ccc([N+](=O)[O-])cn4)cc3)[nH]c2c1` here?
**A.** The AC50 was 3.55 µM [rising, single point].

**Q.** Which AC50 [2] does the source give for `COc1ccc(N(CC(=O)N/N=C/c2cc(Br)c(C)o2)S(=O)(=O)c2ccc(NC(C)=O)cc2)cc1` here?
**A.** The AC50 was 35.5 µM [falling, single point].

**Q.** Which AC50 [1] does the source give for `CCc1ccc(CCC(=O)Nc2sc3c(c2C#N)CCCC3)o1` here?
**A.** The AC50 was 3.55 µM [rising, full curve].

**Q.** With `COc1ccc(-n2c(CNC(=O)COc3ccc(Cl)cc3)n[nH]c2=S)cc1` as the compound, how does the AC50 [1] read?
**A.** Its AC50 is 0.0141 µM [falling, full curve, poor fit].

**Q.** Which AC50 [2] does the source give for `COc1ccccc1NC(=O)C1=C(C)Nc2nc3ccccc3n2C1c1cccs1` (centres undefined) here?
**A.** Its AC50 is 6.31 µM [rising, partial curve, poor fit].

**Q.** And the AC50 [1]?
**A.** The AC50 was 3.98 µM [rising, full curve].

**Q.** For `COc1ccc(OC)c(NC(=O)C(Sc2ccccc2)c2ccccc2)c1` (centres undefined), which AC50 [1] is on record?
**A.** Its AC50 is 12.6 µM [rising, partial curve].

**Q.** For `COc1ccc(OCC(O)CN2CCN(Cc3ccc4c(c3)OCO4)CC2)cc1` (centres undefined), which AC50 [2] is on record?
**A.** The AC50 was 0.00501 µM [rising, full curve, poor fit].

**Q.** Which results are given for `Cc1ccccc1-n1c(O)c(/C=N/N2CCCCC2c2cccnc2)c(=O)[nH]c1=O` (centres undefined)?
**A.** AC50 [2]: 0.00447 µM [rising, full curve, poor fit]; AC50 [1]: 0.1 µM [rising, full curve, poor fit]

**Q.** For `COC(=O)c1ccc(C(=O)N(CCN(C)C)c2nc3c(Cl)cccc3s2)cc1`, which AC50 [2] is on record?
**A.** Its AC50 is 4.47 µM [rising, partial curve, poor fit].

**Q.** Which AC50 [1] does the source give for `CCOC(=O)c1[nH]cnc1N=Nc1c(O)ccc2ccccc12` here?
**A.** Its AC50 is 0.447 µM [rising, full curve].

**Q.** For `O=C1CC(c2cccc([N+](=O)[O-])c2)c2c(ccc3ccccc23)N1` (centres undefined), which AC50 [2] is on record?
**A.** The AC50 was 35.5 µM [falling, single point].

**Q.** What about the AC50 [1] of the same compound?
**A.** Its AC50 is 35.5 µM [falling, single point].

**Q.** Which AC50 [1] does the source give for `Cc1ccc(NC(=O)N2CCC(c3nc4c(nnn4Cc4cccc(Cl)c4)c(=O)[nH]3)CC2)cc1` here?
**A.** Its AC50 is 6.31 µM [falling, single point].

**Q.** Which results are given for `COc1cccc(N(C(=O)CNC(=O)c2ccco2)C(C(=O)NC2CCCCC2)c2ccncc2)c1` (centres undefined)?
**A.** AC50 [2]: 35.5 µM [rising, single point]; AC50 [1]: 35.5 µM [rising, single point]

**Q.** Which AC50 [1] does the source give for `C=CCNc1nc(N2CCCCC2)c(C#N)c2c1CN(Cc1ccccc1)CC2` here?
**A.** The AC50 was 14.1 µM [rising, single point].

**Q.** What does the source list for `CC1(C)S[C@@H]2[C@H](NC(=O)[C@@H](N)c3ccccc3)C(=O)N2[C@H]1C(=O)O[C@H]1OC(=O)c2ccccc21`?
**A.** AC50 [2]: 0.00282 µM [rising, full curve, poor fit]; AC50 [1]: 1.78 µM [rising, single point]

**Q.** Which results are given for `CCC1CCCCN1C(=O)c1ccc2c(c1)N(Cc1cccc(Cl)c1)C(=O)c1ccccc1S2(=O)=O` (centres undefined)?
**A.** AC50 [2]: 0.00562 µM [falling, full curve, poor fit]; AC50 [1]: 0.01 µM [falling, full curve, poor fit]

**Q.** Which results are given for `CCCCCn1c(Sc2nc3ccccc3s2)nc2c1c(=O)[nH]c(=O)n2C`?
**A.** AC50 [2]: 14.1 µM [rising, partial curve]; AC50 [1]: 14.1 µM [rising, partial curve]

**Q.** With `Cc1cc2c(c(=O)n1Cc1cccnc1)C(Cc1ccccc1)C(C#N)=C(N)O2` (centres undefined) as the compound, how does the AC50 [1] read?
**A.** Its AC50 is 0.316 µM [rising, full curve].

**Q.** Which results are given for `CC1CC(C)CN(S(=O)(=O)c2ccc(C(=O)Nc3nnc(-c4cccs4)o3)cc2)C1` (centres undefined)?
**A.** AC50 [2]: 3.98 µM [rising, partial curve, poor fit]; AC50 [1]: 12.6 µM [rising, partial curve]

**Q.** With `CC(C)C[C@H](NC(=O)C1OC1C(=O)O)C(=O)NCCCCN=C(N)N` (some centres undefined) as the compound, how does the AC50 [2] read?
**A.** The AC50 was 2.82 µM [rising, partial curve].

**Q.** And the AC50 [1]?
**A.** Its AC50 is 1.78 µM [rising, partial curve, poor fit].

**Q.** With `Cc1ccc(NC(=O)c2cccc(NC(=O)/C=C/c3ccco3)c2)cc1C` as the compound, how does the AC50 [2] read?
**A.** Its AC50 is 17.8 µM [rising, single point].

**Q.** What about the AC50 [1] of the same compound?
**A.** The AC50 was 25.1 µM [rising, single point].

**Q.** Which AC50 [2] does the source give for `CCOC(=O)/C=C/C(=O)NNC(=O)c1ccccc1Cl` here?
**A.** The AC50 was 25.1 µM [rising, partial curve, poor fit].

**Q.** And the AC50 [1]?
**A.** The AC50 was 10 µM [rising, partial curve].

**Q.** Which AC50 [2] does the source give for `O=C(CN(Cc1ccc2c(c1)OCO2)C(=O)CSc1nc2ccccc2o1)NC1CCCCC1` here?
**A.** Its AC50 is 11.2 µM [rising, partial curve].

**Q.** And the AC50 [1]?
**A.** Its AC50 is 20 µM [rising, single point].

**Q.** Which AC50 [1] does the source give for `O=[N+]([O-])c1ccccc1SNc1ccccn1` here?
**A.** The AC50 was 14.1 µM [rising, single point].

**Q.** Which AC50 [1] does the source give for `Cc1ccc(-n2ncc3c(NCCCN4CCOCC4)ncnc32)cc1` here?
**A.** Its AC50 is 0.0112 µM [falling, full curve].

**Q.** With `Cc1ccc(S(=O)(=O)NC(CC(=O)N2CCOCC2)c2ccco2)cc1` (centres undefined) as the compound, how does the AC50 [1] read?
**A.** The AC50 was 20 µM [rising, single point].

**Q.** With `CSc1nc2ccc(NS(=O)(=O)c3ccccc3F)cc2s1` as the compound, how does the AC50 [2] read?
**A.** The AC50 was 11.2 µM [rising, partial curve, poor fit].

**Q.** And the AC50 [1]?
**A.** The AC50 was 22.4 µM [rising, single point].

**Q.** For `COc1ccc(N2CCN(S(=O)(=O)c3ccc4c(c3)CC(C)N4C(C)=O)CC2)cc1` (centres undefined), which AC50 [2] is on record?
**A.** Its AC50 is 0.0794 µM [falling, full curve, poor fit].

**Q.** For `COc1ccccc1/C=C/C=N/N1CCN(Cc2ccccc2)CC1`, which AC50 [1] is on record?
**A.** Its AC50 is 15.8 µM [rising, partial curve].

**Q.** With `O=C(NCC(c1cccnc1)N1CCN(c2ccc(F)cc2)CC1)c1ccc2c(c1)OCO2` (centres undefined) as the compound, how does the AC50 [1] read?
**A.** The AC50 was 20 µM [rising, single point].

**Q.** With `Cc1ccn2c(C(=O)CSc3ccc(Cl)cc3)c(C)nc2c1` as the compound, how does the AC50 [1] read?
**A.** The AC50 was 35.5 µM [rising, single point].

**Q.** With `CCC/C(=N\NC(=O)c1ccc(CSc2nncn2C)cc1)c1ccccc1` as the compound, how does the AC50 [2] read?
**A.** Its AC50 is 12.6 µM [rising, single point].

**Q.** With `COc1ccc(NC(=O)C2Cc3ccccc3N2C(=O)c2ccccc2)c(OC)c1` (centres undefined) as the compound, how does the AC50 [2] read?
**A.** Its AC50 is 39.8 µM [falling, single point].

**Q.** Which AC50 [2] does the source give for `CN1CCN(CCC(=O)N2c3ccccc3Sc3ccc(Cl)cc32)CC1` here?
**A.** The AC50 was 11.2 µM [rising, partial curve, poor fit].

**Q.** And the AC50 [1]?
**A.** The AC50 was 14.1 µM [rising, single point].

**Q.** For `CSCc1cc(N2CCOCC2)nc(SCc2ccc(Cl)cc2Cl)n1`, which AC50 [2] is on record?
**A.** Its AC50 is 17.8 µM [falling, single point].

**Q.** And the AC50 [1]?
**A.** The AC50 was 28.2 µM [falling, single point].

**Q.** Which results are given for `c1ccc(-c2ccccn2)nc1`?
**A.** AC50 [2]: 4.47 nM [falling, full curve, poor fit] and 35.5 µM [rising, single point]; AC50 [1]: 5.01 nM [falling, full curve, poor fit] and 35.5 µM [rising, single point]

**Q.** For `COc1cccc(/C=N/NC(=O)c2cc3c(OC)c(OC)ccc3[nH]2)c1OC`, which AC50 [1] is on record?
**A.** Its AC50 is 3.98 µM [rising, full curve, poor fit].

**Q.** For `CO[C@H]1OC2O[C@@]3(C)CC[C@H]4[C@H](C)CC[C@@H]([C@H]1C)[C@@]24OO3` (some centres undefined), which AC50 [1] is on record?
**A.** Its AC50 is 0.562 µM [falling, full curve, poor fit].

**Q.** Which results are given for `CC(C)(C)NC(=O)CSc1nc2ccc(NC(=O)CSc3nnc(N)s3)cc2s1`?
**A.** AC50 [2]: 7.94 µM [rising, partial curve]; AC50 [1]: 15.8 µM [rising, partial curve]

**Q.** Which AC50 [1] does the source give for `COc1cc(/C=C/C(=O)Nc2ccncc2)cc(OC)c1OC` here?
**A.** The AC50 was 31.6 µM [rising, single point].

**Q.** Which AC50 [1] does the source give for `CCNC(=S)N(CCc1c(C)[nH]c2ccc(C)cc12)Cc1ccco1` here?
**A.** The AC50 was 12.6 µM [rising, partial curve].

**Q.** What does the source list for `OCC(O)CO`?
**A.** AC50 [2]: 0.447 µM [falling, single point]; AC50 [1]: 0.355 µM [falling, partial curve, poor fit]

**Q.** Which AC50 [2] does the source give for `Cn1c(N)c(C(=O)COC(=O)/C=C/c2ccc(OC(F)F)cc2)c(=O)n(C)c1=O` here?
**A.** Its AC50 is 0.891 µM [rising, full curve].

**Q.** With `O=C(NCc1cccc(F)c1)c1noc2c1CCCC2` as the compound, how does the AC50 [1] read?
**A.** The AC50 was 11.2 µM [rising, partial curve, poor fit].

**Q.** For `Cc1ccc(CN2CCN(/N=C\C(Br)=C\c3ccccc3)CC2)cc1`, which AC50 [1] is on record?
**A.** The AC50 was 35.5 µM [rising, partial curve].

**Q.** With `CNc1nc(-c2ccccc2OC)nc2ccccc12` as the compound, how does the AC50 [2] read?
**A.** The AC50 was 5.01 µM [falling, partial curve].
